For part of these data: Expression grades refer to the transcript from which the peptide derives; gene names, where given, were looked up from the sequence.
Assays:
[1] = tested on: HLA-A*24 molecules of primary tumors; test: Identification and relative LC-MS quantitation of HLA-A*24 tumor-associated peptides presented on tissue samples (XPRESIDENT presentation profiles); design: species or system human; settings: for Peptide Presentation on cancer entities: Table 9B: selected HLA-A*24 peptides, presentation on additional cancer entities; for ENTITIES: Table 9A: selected HLA-A*24-binding tumor-associated peptides, cancer entities on which the peptide was found presented
[2] = tested on: source genes of selected peptides; test: Expression profiling of source genes by in-house RNAseq, tumor vs normal tissues (target coverage); design: species or system human; settings: for Target coverage, over-expression of source gene, AML: AML (N = 7); for Target coverage, over-expression of source gene, AML / Target coverage, over-expression of source gene, BRCA / Target coverage, over-expression of source gene, CLL / Target coverage, over-expression of source gene, CRC / Target coverage, over-expression of source gene, GB / Target coverage, over-expression of source gene, HCC / Target coverage, over-expression of source gene, OC / Target coverage, over-expression of source gene, OSCAR / Target coverage, over-expression of source gene, PC / Target coverage, over-expression of source gene, RCC / Target coverage, over-expression of source gene, SCLC / Target coverage, over-expression of source gene, pNSCLC: share of tumors with more than 1.5-fold higher expression than highest relevant normal tissue, in-house RNASeq; for Target coverage, over-expression of source gene, BRCA: BRCA (N = 10); for Target coverage, over-expression of source gene, CLL: CLL (N = 10); for Target coverage, over-expression of source gene, CRC: CRC (N = 20); for Target coverage, over-expression of source gene, GB: GB (N = 24); for Target coverage, over-expression of source gene, HCC: HCC (N = 15); for Target coverage, over-expression of source gene, OC: OC (N = 12); for Target coverage, over-expression of source gene, OSCAR: OSCAR (N = 11); for Target coverage, over-expression of source gene, PC: PC (N = 26); for Target coverage, over-expression of source gene, RCC: RCC (N = 10); for Target coverage, over-expression of source gene, SCLC: SCLC (N = 10); for Target coverage, over-expression of source gene, pNSCLC: pNSCLC (N = 11); for Target coverage for source genes of selected peptides, GBC_CCC (N = 10): gallbladder adenocarcinoma and cholangiocarcinoma; for Target coverage for source genes of selected peptides, GBC_CCC (N = 10) / Target coverage for source genes of selected peptides, GC (N = 11) / Target coverage for source genes of selected peptides, HNSCC (N = 10) / Target coverage for source genes of selected peptides, MEL (N = 10) / Target coverage for source genes of selected peptides, NHL (N = 10) / Target coverage for source genes of selected peptides, PCA (n = 10) / Target coverage for source genes of selected peptides, UBC (N = 10) / Target coverage for source genes of selected peptides, UTC (N = 10): share of tumors with more than 1.5-fold higher expression than the highest-expressing relevant normal tissue, in-house RNAseq; for Target coverage for source genes of selected peptides, GC (N = 11): gastric cancer; for Target coverage for source genes of selected peptides, HNSCC (N = 10): head and neck small cell carcinoma; for Target coverage for source genes of selected peptides, MEL (N = 10): melanoma; for Target coverage for source genes of selected peptides, NHL (N = 10): non-Hodgkin lymphoma; for Target coverage for source genes of selected peptides, PCA (n = 10): prostate cancer and benign prostate hyperplasia; for Target coverage for source genes of selected peptides, UBC (N = 10): urinary bladder cancer; for Target coverage for source genes of selected peptides, UTC (N = 10): uterine cancer

| Substance | Target coverage, over-expression of source gene, AML [2] | Target coverage, over-expression of source gene, BRCA [2] | Target coverage, over-expression of source gene, CLL [2] | Target coverage, over-expression of source gene, CRC [2] | Target coverage, over-expression of source gene, GB [2] | Target coverage, over-expression of source gene, HCC [2] | Target coverage, over-expression of source gene, OC [2] | Target coverage, over-expression of source gene, OSCAR [2] | Target coverage, over-expression of source gene, PC [2] | Target coverage, over-expression of source gene, RCC [2] | Target coverage, over-expression of source gene, SCLC [2] | Target coverage, over-expression of source gene, pNSCLC [2] | ENTITIES [1] | Target coverage for source genes of selected peptides, GBC_CCC (N = 10) [2] | Target coverage for source genes of selected peptides, GC (N = 11) [2] | Target coverage for source genes of selected peptides, HNSCC (N = 10) [2] | Target coverage for source genes of selected peptides, MEL (N = 10) [2] | Target coverage for source genes of selected peptides, NHL (N = 10) [2] | Target coverage for source genes of selected peptides, PCA (n = 10) [2] | Target coverage for source genes of selected peptides, UBC (N = 10) [2] | other results |
| --- | --- | --- | --- | --- | --- | --- | --- | --- | --- | --- | --- | --- | --- | --- | --- | --- | --- | --- | --- | --- | --- |
| 220: peptide found in DCLRE1C (gene looked up) (SYSEIKDFL; listed as Homo sapiens) [compound 220] | I (<19% over-expression = I) | I (<19% over-expression = I) | IV (>70% = IV) | I (<19% over-expression = I) | I (<19% over-expression = I) | I (<19% over-expression = I) | I (<19% over-expression = I) | I (<19% over-expression = I) | I (<19% over-expression = I) | I (<19% over-expression = I) | I (<19% over-expression = I) | I (<19% over-expression = I) |  |  |  |  |  |  |  |  | Peptide Presentation on cancer entities [1]: NSCLC |
| 287: peptide found in VANGL1 (gene looked up) (IYNPNLLTASKF; listed as Homo sapiens) [compound 287] | I (<19% over-expression = I) | III (50-69% = III) | I (<19% over-expression = I) | I (<19% over-expression = I) | I (<19% over-expression = I) | I (<19% over-expression = I) | III (50-69% = III) | III (50-69% = III) | I (<19% over-expression = I) | I (<19% over-expression = I) | I (<19% over-expression = I) | I (<19% over-expression = I) |  |  |  |  |  |  |  |  | Peptide Presentation on cancer entities [1]: NSCLC |
| 304: peptide found in PARP11 (gene looked up) (EYNEVANLF; listed as Homo sapiens) [compound 304] | I (<19% over-expression = I) | I (<19% over-expression = I) | I (<19% over-expression = I) | I (<19% over-expression = I) | II (20-49% = II) | I (<19% over-expression = I) | I (<19% over-expression = I) | I (<19% over-expression = I) | I (<19% over-expression = I) | I (<19% over-expression = I) | I (<19% over-expression = I) | I (<19% over-expression = I) | HCC, NSCLC, GC, RCC, GB, PCA | I (<19% over-expression = I) | I (<19% over-expression = I) | I (<19% over-expression = I) | I (<19% over-expression = I) | I (<19% over-expression = I) | III (50-69% = III) | I (<19% over-expression = I) | Target coverage for source genes of selected peptides, UTC (N = 10) [2]: I (<19% over-expression = I) |
| 308: peptide found in CYP2S1 (gene looked up) (TFDGHGVFF; listed as Homo sapiens) [compound 308] | I (<19% over-expression = I) | I (<19% over-expression = I) | I (<19% over-expression = I) | II (20-49% = II) | I (<19% over-expression = I) | I (<19% over-expression = I) | I (<19% over-expression = I) | II (20-49% = II) | I (<19% over-expression = I) | I (<19% over-expression = I) | I (<19% over-expression = I) | I (<19% over-expression = I) | NSCLC, GC |  |  |  |  |  |  |  |  |
| 317: peptide found in SIAH1 (gene looked up) (VFDTSIAQLF; listed as Homo sapiens) [compound 317] |  |  |  |  |  |  |  |  |  |  |  |  | GB, RCC, HCC, NSCLC, GC | I (<19% over-expression = I) | I (<19% over-expression = I) | I (<19% over-expression = I) | I (<19% over-expression = I) | I (<19% over-expression = I) | I (<19% over-expression = I) | I (<19% over-expression = I) | Target coverage for source genes of selected peptides, UTC (N = 10) [2]: I (<19% over-expression = I) |
| 347: peptide found in CSNK2A2 (gene looked up) (VYAEVNSL; listed as Homo sapiens) [compound 347] |  |  |  |  |  |  |  |  |  |  |  |  | GB, NSCLC, GC | I (<19% over-expression = I) | I (<19% over-expression = I) | I (<19% over-expression = I) | I (<19% over-expression = I) | I (<19% over-expression = I) | I (<19% over-expression = I) | I (<19% over-expression = I) | Target coverage for source genes of selected peptides, UTC (N = 10) [2]: I (<19% over-expression = I) |

Reference: US10159726B2, “Peptides, combination of peptides and scaffolds for use in immunotherapeutic treatment of various cancers” (Immatics Biotechnologies GmbH, priority 2015, dated 2018)
